Measurements reported in PubChem BioAssay AID1259308 (NCATS, 2017)
The whole screen tested about 59,000 reagents; shown is a part drawn at random. About 1,510 of all reagents (2.6%) were called active. 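Calls use total luciferase alone and ignore viability, so some active siRNAs may act by altering cell number.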 Reagents against one gene are numbered here. Further read-outs or replicates are left out here. Reagent sequences are not shown.

Aim: 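Genes whose loss raises luciferase production in HEK293 cells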 (primary screen)
Cells: human HEK293 embryonic kidney cells stably expressing firefly luciferase (HEK-CMV-Luc2-Hygro)
Reagent: single siRNA against human genes, 0.8 pmol siRNA per well
Timing: 72 h
Measured: 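Luciferase light (ONE-Glo) measured on one replicate plate set and viability (CellTiter-Glo) on the other, scaled to a negative control siRNA, with robust z-scores and luciferase per cell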
Scale: total luciferase, z-score and total luciferase, % of control: higher = more reporter protein produced
Call rule: 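Active when the median/MAD z-score for overall luciferase is greater than 3; a gene was taken forward for validation with new siRNAs if at least two of its three siRNAs passed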
Meaning of the calls: active = raised luciferase; inactive = no rise

The opening 7 records, ahead of the listing:
gene symbol | reagent | total luciferase, z-score | total luciferase, % of control | Outcome
FAM156B | 1 | -1.66 | 48.8 | inactive
FAM156B | 2 | 0.535 | 92.5 | inactive
FAM156B | 3 | 1.22 | 106 | inactive
NSMAF | 1 | 0.0453 | 82.8 | inactive
NSMAF | 2 | 0.105 | 84 | inactive
NSMAF | 3 | -0.725 | 67.5 | inactive
ABL1 | 1 | -1.58 | 50.4 | inactive

Results, from the start:
gene symbol | reagent | total luciferase, z-score | total luciferase, % of control | Outcome
FAM156B | 1 | -1.66 | 48.8 | inactive
FAM156B | 2 | 0.535 | 92.5 | inactive
FAM156B | 3 | 1.22 | 106 | inactive
NSMAF | 1 | 0.0453 | 82.8 | inactive
NSMAF | 2 | 0.105 | 84 | inactive
NSMAF | 3 | -0.725 | 67.5 | inactive
ABL1 | 1 | -1.58 | 50.4 | inactive
ABL1 | 2 | -0.824 | 65.5 | inactive
ABL1 | 3 | -0.668 | 68.6 | inactive
NGB | 1 | 0.0736 | 83.4 | inactive
NGB | 2 | 4.92 | 180 | active
NGB | 3 | -1.25 | 57 | inactive
NGB | 4 | 0.723 | 96.3 | inactive
NGB | 5 | -1.33 | 55.5 | inactive
NGB | 6 | 0.7 | 95.8 | inactive
KAT6B | 1 | 0.442 | 90.7 | inactive
KAT6B | 2 | 0.221 | 86.3 | inactive
KAT6B | 3 | -0.457 | 72.8 | inactive
GLT1D1 | 1 | 1.01 | 102 | inactive
GLT1D1 | 2 | -0.478 | 72.4 | inactive
GLT1D1 | 3 | 0.999 | 102 | inactive
DACT3 | 1 | 3.06 | 143 | active
DACT3 | 2 | -0.198 | 78 | inactive
DACT3 | 3 | 1.74 | 117 | inactive
TSPAN19 | 1 | -0.971 | 62.6 | inactive
TSPAN19 | 2 | 0.346 | 88.8 | inactive
TSPAN19 | 3 | -2.08 | 40.5 | inactive
ANLN | 1 | 2.18 | 125 | inactive
ANLN | 2 | 3.41 | 150 | active
ANLN | 3 | -0.0898 | 80.1 | inactive
PARP6 | 1 | 0.00782 | 82 | inactive
PARP6 | 2 | 0.838 | 98.5 | inactive
PARP6 | 3 | 2.06 | 123 | inactive
WASF2 | 1 | 2.52 | 132 | inactive
WASF2 | 2 | -0.656 | 68.8 | inactive
WASF2 | 3 | 1.47 | 111 | inactive
FGF17 | 1 | 1.75 | 117 | inactive
FGF17 | 2 | 0.504 | 91.9 | inactive
FGF17 | 3 | -1.86 | 44.8 | inactive
OR5D16 | 1 | -0.699 | 68 | inactive
OR5D16 | 2 | -0.65 | 68.9 | inactive
OR5D16 | 3 | 0.112 | 84.1 | inactive
ZNF100 | 1 | -0.273 | 76.5 | inactive
ZNF100 | 2 | -0.247 | 77 | inactive
ZNF100 | 3 | -2.13 | 39.6 | inactive
CHN2 | 1 | -0.618 | 69.6 | inactive
CHN2 | 2 | 0.83 | 98.4 | inactive
CHN2 | 3 | 1.2 | 106 | inactive
CYLC1 | 1 | -0.349 | 74.9 | inactive
CYLC1 | 2 | -0.334 | 75.2 | inactive
CYLC1 | 3 | 1.35 | 109 | inactive
OR5M9 | 1 | -0.617 | 69.6 | inactive
OR5M9 | 2 | 0.733 | 96.5 | inactive
OR5M9 | 3 | 1.88 | 119 | inactive
BMP3 | 1 | 0.276 | 87.4 | inactive
BMP3 | 2 | 2.11 | 124 | inactive
BMP3 | 3 | -0.197 | 78 | inactive
